{
  "source": "paper doi:10.1101/2022.11.10.516022",
  "note": "Results are given in words; binding and its absence hold for the method and conditions named. Binding seen in cells or lysates may run through a third protein. A result given as binding can be weak or reduced; the word gives no strength.",
  "data": [
    {"biological_target": "ApoL6-GST (GST-tagged full-length ApoL6) (mouse)", "test": "pull-down", "values": [
      {"binder": "in vitro translated Plin1 (protein, UniProt Q8CGN5 1-517, 35S labeled methionine) MSMNKGPTLLDGDLPEQENVLQRVLQLPVVSGTCECFQKTYNSTKEAHPLVASVCNAYEKGVQGASNLAAWSMEPVVRRLSTQFTAANELACRGLDHLEEKIPALQYPPEKIASELKGTISTRLRSARNSISVPIASTSDKVLGATLAGCELALGMAKETAEYAANTRVGRLASGGADLALGSIEKVVEFLLPPDKESAPSSGRQRTQKAPKAKPSLVRRVSTLANTLSRHTMQTTAWALKQGHSLAMWIPGVAPLSSLAQWGASAAMQVVSRRQSEVRVPWLHNLAASQDESHDDQTDTEGEETDDEEEEEESEAEENVLREVTALPNPRGLLGGVVHTVQNTLRNTISAVTWAPAAVLGTVGRILHLTPAQAVSSTKGRAMSLSDALKGVTDNVVDTVVHYVPLPRLSLMEPESEFRDIDNPSAEAERKGSGARPASPESTPRPGQPRGSLRSVRGLSAPSCPGLDDKTEASARPGFLAMPREKPARRVSDSFFRPSVMEPILGRAQYSQLRKKS", "binding": "binds"},
      {"binder": "in vitro translated HSL (enzyme, UniProt P54310 1-759, 35S labeled methionine) MDLRTMTQSLVTLAEDNMAFFSSQGPGETARRLSNVFAGVREQALGLEPTLGQLLGVAHHFDLDTETPANGYRSLVHTARCCLAHLLHKSRYVASNRKSIFFRASHNLAELEAYLAALTQLRAMAYYAQRLLTINRPGVLFFEGDEGLTADFLQEYVTLHKGCFYGRCLGFQFTPAIRPFLQTLSIGLVSFGEHYKRNETGLSVTASSLFTGGRFAIDPELRGAEFERIIQNLDVHFWKAFWNITEIEVLSSLANMASTTVRVSRLLSLPPEAFEMPLTSDPRLTVTISPPLAHTGPAPVLARLISYDLREGQDSKVLNSLAKSEGPRLELRPRPHQAPRSRALVVHIHGGGFVAQTSKSHEPYLKNWAQELGVPIFSIDYSLAPEAPFPRALEECFFAYCWAVKHCDLLGSTGERICLAGDSAGGNLCITVSLRAAAYGVRVPDGIMAAYPVTTLQSSASPSRLLSLMDPLLPLSVLSKCVSAYSGTEAEDHFDSDQKALGVMGLVQRDTSLFLRDLRLGASSWLNSFLELSGRKPQKTTSPTAESVRPTESMRRSVSEAALAQPEGLLGTDTLKKLTIKDLSNSEPSDSPEMSQSMETLGPSTPSDVNFFLRPGNSQEEAEAKDEVRPMDGVPRVRAAFPEGFHPRRSSQGVLHMPLYTSPIVKNPFMSPLLAPDSMLKTLPPVHLVACALDPMLDDSVMFARRLRDLGQPVTLKVVEDLPHGFLSLAALCRETRQATEFCVQRIRLILTPPAAPLN", "binding": "no binding"},
      {"binder": "in vitro translated ATGL (enzyme, UniProt Q8BJ56 1-486, 35S labeled methionine) MFPRETKWNISFAGCGFLGVYHIGVASCLREHAPFLVANATHIYGASAGALTATALVTGACLGEAGANIIEVSKEARKRFLGPLHPSFNLVKTIRGCLLKTLPADCHERANGRLGISLTRVSDGENVIISHFSSKDELIQANVCSTFIPVYCGLIPPTLQGVRYVDGGISDNLPLYELKNTITVSPFSGESDICPQDSSTNIHELRVTNTSIQFNLRNLYRLSKALFPPEPMVLREMCKQGYRDGLRFLRRNGLLNQPNPLLALPPVVPQEEDAEEAAVVEERAGEEDQLQPYRKDRILEHLPARLNEALLEACVEPKDLMTTLSNMLPVRLATAMMVPYTLPLESAVSFTIRLLEWLPDVPEDIRWMKEQTGSICQYLVMRAKRKLGDHLPSRLSEQVELRRAQSLPSVPLSCATYSEALPNWVRNNLSLGDALAKWEECQRQLLLGLFCTNVAFPPDALRMRAPASPTAADPATPQDPPGLPPC", "binding": "no binding"}
    ]}
  ]
}
